Experimental data from publication PMC4357729.
These are yes or no findings as the source states them, for the method shown. Binding seen in cells or lysates may run through a third protein. Some binding calls cover weakened binding; strength is not graded here.

Chains of the proteins cited; added tags and fusions are not shown.
UniProt Q80U78: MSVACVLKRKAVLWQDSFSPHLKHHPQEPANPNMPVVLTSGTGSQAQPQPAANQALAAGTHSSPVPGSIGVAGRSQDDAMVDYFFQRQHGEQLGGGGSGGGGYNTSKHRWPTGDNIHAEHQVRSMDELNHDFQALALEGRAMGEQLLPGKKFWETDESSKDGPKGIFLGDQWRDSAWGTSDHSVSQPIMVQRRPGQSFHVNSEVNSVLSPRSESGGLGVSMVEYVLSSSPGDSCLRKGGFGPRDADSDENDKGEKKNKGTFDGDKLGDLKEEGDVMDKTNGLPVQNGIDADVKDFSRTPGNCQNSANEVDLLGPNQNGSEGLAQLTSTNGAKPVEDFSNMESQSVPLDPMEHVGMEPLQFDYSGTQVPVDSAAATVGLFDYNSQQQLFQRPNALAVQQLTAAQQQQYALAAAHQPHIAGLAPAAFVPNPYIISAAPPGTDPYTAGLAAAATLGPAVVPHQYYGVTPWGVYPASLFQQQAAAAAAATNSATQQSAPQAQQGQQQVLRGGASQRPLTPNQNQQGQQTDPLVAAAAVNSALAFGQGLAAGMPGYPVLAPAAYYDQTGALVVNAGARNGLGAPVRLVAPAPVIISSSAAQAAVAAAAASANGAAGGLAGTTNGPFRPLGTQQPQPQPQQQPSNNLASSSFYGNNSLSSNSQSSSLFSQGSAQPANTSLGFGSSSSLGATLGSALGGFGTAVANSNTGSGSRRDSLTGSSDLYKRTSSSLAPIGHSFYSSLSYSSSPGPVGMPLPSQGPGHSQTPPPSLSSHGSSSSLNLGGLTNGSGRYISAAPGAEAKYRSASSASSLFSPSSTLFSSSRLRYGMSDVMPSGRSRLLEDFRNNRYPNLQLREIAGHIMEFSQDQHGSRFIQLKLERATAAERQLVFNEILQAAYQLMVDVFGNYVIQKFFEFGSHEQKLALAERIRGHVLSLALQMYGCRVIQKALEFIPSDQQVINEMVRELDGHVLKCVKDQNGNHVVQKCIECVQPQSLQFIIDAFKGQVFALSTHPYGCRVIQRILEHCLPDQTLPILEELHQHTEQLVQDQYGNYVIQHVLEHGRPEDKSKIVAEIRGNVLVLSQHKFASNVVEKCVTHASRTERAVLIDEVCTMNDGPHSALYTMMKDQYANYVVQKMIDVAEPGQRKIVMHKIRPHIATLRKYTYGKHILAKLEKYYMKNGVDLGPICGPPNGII
UniProt Q9UKV8: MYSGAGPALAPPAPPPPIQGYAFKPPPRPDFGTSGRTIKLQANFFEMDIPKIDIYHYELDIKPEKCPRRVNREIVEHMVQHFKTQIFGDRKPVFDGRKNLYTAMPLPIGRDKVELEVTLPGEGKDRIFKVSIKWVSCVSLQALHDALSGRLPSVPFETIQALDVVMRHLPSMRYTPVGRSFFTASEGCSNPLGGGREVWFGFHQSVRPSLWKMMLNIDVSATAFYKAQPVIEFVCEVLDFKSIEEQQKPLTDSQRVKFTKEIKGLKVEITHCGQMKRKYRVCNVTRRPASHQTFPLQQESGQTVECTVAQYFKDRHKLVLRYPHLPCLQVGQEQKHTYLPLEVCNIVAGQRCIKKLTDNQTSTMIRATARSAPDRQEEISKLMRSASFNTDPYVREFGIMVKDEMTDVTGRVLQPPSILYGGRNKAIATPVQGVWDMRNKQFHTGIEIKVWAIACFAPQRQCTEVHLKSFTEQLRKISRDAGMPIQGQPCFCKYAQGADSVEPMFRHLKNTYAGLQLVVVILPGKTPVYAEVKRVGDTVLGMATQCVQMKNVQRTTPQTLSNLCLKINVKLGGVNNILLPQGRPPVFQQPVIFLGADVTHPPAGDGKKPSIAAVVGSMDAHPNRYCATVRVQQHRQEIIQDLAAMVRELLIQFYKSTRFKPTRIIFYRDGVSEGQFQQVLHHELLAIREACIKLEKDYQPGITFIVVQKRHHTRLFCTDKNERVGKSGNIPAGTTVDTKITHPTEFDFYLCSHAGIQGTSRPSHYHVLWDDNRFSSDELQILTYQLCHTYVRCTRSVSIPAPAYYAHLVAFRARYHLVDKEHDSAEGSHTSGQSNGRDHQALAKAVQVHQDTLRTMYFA
UniProt Q8CJG0: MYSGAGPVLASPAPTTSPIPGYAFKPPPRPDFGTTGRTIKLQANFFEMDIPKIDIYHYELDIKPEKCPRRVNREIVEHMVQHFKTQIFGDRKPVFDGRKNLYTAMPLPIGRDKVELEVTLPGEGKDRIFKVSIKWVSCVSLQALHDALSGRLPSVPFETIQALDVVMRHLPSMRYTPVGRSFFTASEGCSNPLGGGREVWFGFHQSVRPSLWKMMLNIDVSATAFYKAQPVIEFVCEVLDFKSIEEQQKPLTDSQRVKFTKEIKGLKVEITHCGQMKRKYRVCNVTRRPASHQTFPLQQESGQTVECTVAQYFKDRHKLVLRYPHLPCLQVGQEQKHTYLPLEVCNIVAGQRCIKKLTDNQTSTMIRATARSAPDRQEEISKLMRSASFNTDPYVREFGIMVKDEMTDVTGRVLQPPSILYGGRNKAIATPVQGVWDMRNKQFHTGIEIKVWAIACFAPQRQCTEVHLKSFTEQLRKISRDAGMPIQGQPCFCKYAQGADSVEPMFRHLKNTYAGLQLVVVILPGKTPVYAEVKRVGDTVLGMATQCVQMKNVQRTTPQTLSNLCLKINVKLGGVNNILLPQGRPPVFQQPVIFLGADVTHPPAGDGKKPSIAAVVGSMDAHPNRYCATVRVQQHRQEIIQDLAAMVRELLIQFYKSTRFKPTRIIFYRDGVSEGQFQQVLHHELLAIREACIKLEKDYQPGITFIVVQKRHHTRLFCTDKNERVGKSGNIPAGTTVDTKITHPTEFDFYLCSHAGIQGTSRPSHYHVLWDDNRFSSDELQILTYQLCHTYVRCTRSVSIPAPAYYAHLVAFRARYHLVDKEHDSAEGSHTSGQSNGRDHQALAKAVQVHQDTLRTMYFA
UniProt Q13049: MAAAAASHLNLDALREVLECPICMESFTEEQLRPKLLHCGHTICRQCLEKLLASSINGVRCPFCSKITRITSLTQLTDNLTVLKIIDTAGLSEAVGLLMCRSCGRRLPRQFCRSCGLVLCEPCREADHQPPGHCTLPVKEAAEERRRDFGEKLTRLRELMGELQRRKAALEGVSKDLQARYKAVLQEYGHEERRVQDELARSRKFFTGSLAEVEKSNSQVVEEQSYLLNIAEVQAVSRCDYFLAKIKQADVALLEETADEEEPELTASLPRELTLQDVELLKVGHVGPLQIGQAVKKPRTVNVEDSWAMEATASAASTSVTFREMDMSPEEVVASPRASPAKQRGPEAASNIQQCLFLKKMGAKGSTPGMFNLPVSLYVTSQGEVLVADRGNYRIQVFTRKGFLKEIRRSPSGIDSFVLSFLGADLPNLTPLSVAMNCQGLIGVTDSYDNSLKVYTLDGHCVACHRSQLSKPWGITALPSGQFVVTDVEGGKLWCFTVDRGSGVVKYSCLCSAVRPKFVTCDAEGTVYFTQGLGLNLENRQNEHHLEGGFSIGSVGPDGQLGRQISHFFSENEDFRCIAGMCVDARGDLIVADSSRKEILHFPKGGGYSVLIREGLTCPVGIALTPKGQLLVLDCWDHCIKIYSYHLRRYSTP

How the values were obtained:
[1] = biological target: T1, RNA helicase DDX6 (endogenous, mouse) (mouse (endogenous in NSCs and brain)) (UniProt P54823); assay: co-IP; adult mouse brain lysate (2% Triton X-100 in PBS with 120 ug/ml RNAse A and 6 ug/ml DNAse); IP with anti-DDX6 or anti-Ago2, anti-GFP as negative control; western blot
T1 sequence: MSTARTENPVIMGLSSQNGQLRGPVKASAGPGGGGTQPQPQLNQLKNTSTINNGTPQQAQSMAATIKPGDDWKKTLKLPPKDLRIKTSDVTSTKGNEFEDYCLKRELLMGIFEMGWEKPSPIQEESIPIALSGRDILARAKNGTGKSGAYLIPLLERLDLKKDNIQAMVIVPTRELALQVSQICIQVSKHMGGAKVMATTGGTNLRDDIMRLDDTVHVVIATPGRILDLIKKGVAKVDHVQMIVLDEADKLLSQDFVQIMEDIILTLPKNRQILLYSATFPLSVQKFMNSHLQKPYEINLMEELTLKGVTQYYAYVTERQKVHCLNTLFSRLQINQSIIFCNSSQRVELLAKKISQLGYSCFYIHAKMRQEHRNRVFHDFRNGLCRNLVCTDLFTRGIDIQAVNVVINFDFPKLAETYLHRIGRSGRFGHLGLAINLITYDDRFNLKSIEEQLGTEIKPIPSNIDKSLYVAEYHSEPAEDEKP

[2] = biological target: T1, RNA helicase DDX6 (endogenous, mouse) (mouse (endogenous in NSCs and brain)); assay: co-IP; E10.5-E14.5 mouse embryonic brain lysate (2% Triton X-100 in PBS with 120 ug/ml RNAse A and 6 ug/ml DNAse); IP with anti-DDX6, anti-GFP as negative control; beads pre-blocked with BSA; western blot
[3] = biological target: Pumilio 1 (endogenous, mouse) (mouse (endogenous in NSCs and brain)) (UniProt Q80U78); assay: co-IP; in vivo (mouse brain lysates); which lysate and which precipitating antibody are not told in the text (Supplementary Figure S3d and e)
[4] = biological target: FLAG-tagged Ago3 (UniProt Q9H9G7); assay: co-IP; HEK293T cells lysed 48 h after transfection (2% Triton X-100 in PBS); anti-FLAG antibody, protein-G agarose; western blot
[5] = biological target: DDX6-Venus-FLAG (UniProt P26196); assay: as above
[6] = biological target: FLAG-tagged Ago1 (UniProt Q9UL18); assay: as above
[7] = biological target: FLAG-tagged Ago2 (UniProt Q9UKV8); assay: as above
[8] = biological target: DDX6-Venus-FLAG (UniProt P26196); assay: co-IP; as the co-IPs from transfected HEK293T cells, with digestion of RNA by micrococcal nuclease (600 U, 1 mM CaCl2, 10 min RT) or RNAse A (10 ug, 30 min, 4°C)
[9] = biological target: FLAG-tagged Ago2 (UniProt Q9UKV8); assay: as above

Measured: binding

Argonaute 2 (endogenous, mouse) (from UniProt Q8CJG0 1-860)
binds: [1] | [2] | [3]

TRIM32 (in the co-immunoprecipitations from transfected HEK293T cells) (from UniProt Q13049 1-653)
not listed: [1] | [2] | [3]
binds: all other assays above
